# Laboratory results: PubChem BioAssay AID651640 (Broad Institute, 2012)
# Screen size: about 350,000 compounds; about 6,000 (1.7%) were called active. This list was built around the results that the source calls inconclusive (neither active nor inactive); the mix of calls is not that of the screen. No stated cut-off is given here; in the data, active means CPE inhibition above about 20% (passing the limit was not always enough); inconclusive means no clear call, values can overlap the other calls; tested in BHK-21 cells.
# Assay: protection of cells from dengue 2 killing – plate reader, single concentration, primary screen (AID 651640);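 further: 0% = median of neutral control wells and 100% = median of positive control wells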
# Conditions: DENV2-infected cells, cytopathic effect rescue, at 9.99 µM, hits give high values
row,SMILES,CPE inhibition
1,COc1cccc(S(=O)(=O)N2C[C@H](O)COC[C@H]3O[C@@H](CC(=O)N4CCOCC4)CC[C@@H]32)c1,inactive: 8.19%
2,CCNC(=O)[C@@H]1[C@@H](CO)[C@@H]2Cn3c(ccc(/C=C/c4ccccc4)c3=O)[C@H]1N2C(=O)C1CCCC1,inactive: -3.6%
3,Cc1ccc(SCc2cc(=O)c3c(=O)n(-c4ccccc4)[nH]c3[nH]2)cc1,inconclusive: 23.5%
4,COc1ccc(-c2oc3c4c2C(=O)OCCOC4CCC3)cc1 (stereo not given),inconclusive: 71.1%
5,CN(CC(=O)Nc1cccc(F)c1)C(=O)CNS(=O)(=O)c1ccc(N(C)C)c([N+](=O)[O-])c1,active: 89.5%
6,CC(=O)N(C)C[C@H]1[C@H](c2ccc(-c3ccc(F)cc3)cc2)[C@@H](CO)N1C(C)=O,active: 33.1%
7,O=C1CNC[C@H]2[C@@H](c3ccc(C4=CCCC4)cc3)[C@H](CO)N12,inactive: 5.71%
8,CC(NS(=O)(=O)c1ccc(OCC(=O)NCc2cccnc2)cc1)c1ccccc1 (stereo not given),inconclusive: 27.5%
9,Cc1ccccc1S(=O)(=O)N1CC(=O)N2[C@H](C1)[C@@H](c1ccc(C#Cc3ccccc3)cc1)[C@@H]2CO,inactive: 2.49%
10,COc1cc(SC)ccc1C(=O)NCC1CCCCC1,inactive: -2.14%
11,O=C(C1CCCCC1)N1CC2(C1)[C@H](c1ccccc1)[C@H](CO)N2CC1CCCC1,inconclusive: 27.4%
12,CCN1[C@H](C(=O)NCCCN(C)C)[C@@H](CO)[C@@H]2Cn3c(ccc(-c4cccc(F)c4)c3=O)[C@@H]21,active: 80.5%
13,C=C1C(=O)OC2C1C(OC(=O)C(C)=CC)CC(=C)C1C(O)C3OC3(C)C21O (stereo not given),inconclusive: 52.8%
14,O=C(O)[C@H]1[C@H](CO)[C@H]2Cn3c(ccc(/C=C/c4ccccc4)c3=O)[C@H]2N1C(=O)c1cnccn1,active: 103%
15,C[C@H](CO)N1C[C@H](C)[C@H](CN(C)S(=O)(=O)c2ccccc2)Oc2ccc(NC(=O)Nc3ccc4c(c3)OCO4)cc2CC1=O,inactive: -4.58%
16,Cc1cnc(=O)[nH]c1SCc1ccc(C(F)(F)F)cc1,inconclusive: 34.6%
17,CCC(C)N(C(=O)CSc1ncnc2sccc12)C1CCS(=O)(=O)C1 (stereo not given),inactive: 2.06%
18,Cc1ccc(C)c(Nc2ncccc2C(=O)NCc2cccs2)c1,inconclusive: 29.5%
19,COc1ccc(CCNC(=O)c2ccc(OC)c(OC)c2)cc1OC,inactive: -2.43%
20,CCOC(=O)c1cccc(NC(=O)CCn2nc(C)c(S(=O)(=O)N3CCCCC3)c2C)c1,inconclusive: 25.8%
21,Cc1ccc(S(=O)(=O)NCC[C@@H]2CC[C@H](NC(=O)c3cnccn3)[C@@H](CO)O2)cc1,inconclusive: 22.7%
22,O=C(Nc1nc2cc3c(cc2s1)OCCO3)c1ccco1,inconclusive: 43.3%
23,C[C@H](CO)N1C[C@H](C)[C@@H](CN(C)C(=O)Nc2ccc(C(F)(F)F)cc2)OCCCC[C@H](C)Oc2ccc(NS(=O)(=O)c3ccccc3)cc2C1=O,active: 40.7%

# Shown bar-delimited: entries from further up
row | SMILES | CPE inhibition
4 | COc1ccc(-c2oc3c4c2C(=O)OCCOC4CCC3)cc1 (stereo not given) | inconclusive: 71.1%
10 | COc1cc(SC)ccc1C(=O)NCC1CCCCC1 | inactive: -2.14%
13 | C=C1C(=O)OC2C1C(OC(=O)C(C)=CC)CC(=C)C1C(O)C3OC3(C)C21O (stereo not given) | inconclusive: 52.8%

# The results go on.

row,SMILES,CPE inhibition
1,COc1ccc(C)cc1S(=O)(=O)N1CCCC(C(=O)NCc2ccccn2)C1 (stereo not given),inconclusive: 29%
2,COc1ccc(CNC(=O)N(C)C[C@H]2OCc3ccccc3-c3ccccc3C(=O)N([C@@H](C)CO)C[C@H]2C)cc1,inactive: -2.1%
3,C=CCc1cccc(/C=N/NC(=O)c2ccccc2Br)c1O,inconclusive: 22.1%
4,Cc1cccn2c(=O)c(/C=N/O)c(NCc3ccccc3)nc12,inactive: -1.51%
5,C[C@@H]1CN([C@H](C)CO)C(=O)c2cc(NC(=O)Cn3cnnn3)ccc2O[C@@H]1CN(C)C(=O)Nc1ccc(C(F)(F)F)cc1,active: 58.8%
6,COc1ccc(CN(C)C[C@H]2OCCCC[C@@H](C)Oc3ccc(NS(=O)(=O)c4c(C)noc4C)cc3C(=O)N([C@@H](C)CO)C[C@@H]2C)cc1,inconclusive: 28.2%
7,CC(=O)Nc1ccc(OCC(O)CN2CCN(c3ccc(F)cc3)CC2)cc1 (stereo not given),inconclusive: 29.9%
8,C[C@@H]1CN([C@@H](C)CO)C(=O)c2cccc(NS(=O)(=O)c3ccccc3)c2O[C@@H]1CN(C)S(=O)(=O)c1ccc(Cl)cc1,inconclusive: 49.6%
9,CCC(=O)N(C)C[C@@H]1Oc2cc(C#CCOC)ccc2S(=O)(=O)N([C@H](C)CO)C[C@@H]1C,inactive: -2.89%
10,CC(=O)N(C)C[C@@H]1Oc2ncc(C#CC(C)(C)O)cc2C(=O)N([C@@H](C)CO)C[C@H]1C,active: 20.1%
11,C[C@H]1CN([C@@H](C)CO)S(=O)(=O)c2ccc(C#CCN(C)C)cc2O[C@H]1CN(C)C(=O)C1CCC1,active: 28.7%
12,COc1ccc(S(=O)(=O)N(C)C[C@H]2Oc3ccc(NC(=O)CCCN(C)C)cc3CC(=O)N([C@H](C)CO)C[C@H]2C)cc1,active: 28.8%
13,O=C(NC1CCN(Cc2ccccc2)CC1)C1CCN(S(=O)(=O)c2ccccc2)CC1,inconclusive: 24.6%
14,COc1ccc(NC(=O)Nc2ccc3c(c2)C(=O)N([C@H](C)CO)C[C@H](C)[C@H](CN(C)CC2CC2)OCCCC[C@@H](C)O3)cc1,inactive: 0.75%
15,COC(=O)[C@]12CCCCC=C1N(Cc1cccc3ccccc13)C(=O)[C@H](CC(=O)N1CCN(C(=O)C3CC3)CC1)C2,inconclusive: 48.7%
16,C[C@H](CO)N1C[C@H](C)[C@@H](CN(C)C(=O)Nc2cccc3ccccc23)Oc2ccc(NS(=O)(=O)c3ccc(Cl)cc3)cc2CC1=O,inactive: -6.04%
17,COc1cccc(NC(=O)c2c(C)cc(C)cc2CC(C)(C)C(=O)O)c1,inconclusive: 22.6%
18,CS(=O)(=O)N1CCN(c2ccccc2NC(=S)NC(=O)c2cccs2)CC1,inactive: -0.848%
19,CCN(CC)C(=O)C1CCN(Cc2ccc(OCc3ccccc3)c(OC)c2)CC1,inconclusive: 56.7%
20,CN(C)CC(=O)N1CC[C@@H]2[C@@H](CO)N(C)c3ccc(Br)cc3[C@@H]21,inactive: 2.31%
21,O=C1/C(=C/C=C/c2ccco2)SC(=S)N1c1ccc(O)cc1,inactive: 1.05%
22,C[C@H](CO)N1C[C@H](C)[C@@H](CN(C)S(C)(=O)=O)Oc2ncc(C#CC3CC3)cc2C1=O,inactive: -3.35%
